Measurements published in paper PMC12392863, “Natural Design of a Stabilized Cross‐β Fold: Structure of the FuA FapC from Pseudomonas Sp. UK4 Reveals a Critical Role for Stacking of Imperfect Repeats” (Advanced Materials (Deerfield Beach, Fla.), 2025).
These are yes or no findings as the source states them, for the method shown. Blank lines part the entries; values can stand above or below the binder they belong to.

What was measured:
Test in all cases: ThT fluorescence fibrillation kinetics; self-assembly into amyloid without seeds; 15 µM FapC (wt or mutant; wt also 1-15 µM), 50 mM Tris/HCl pH 7.4, 40 µM ThT, 37 °C, no shaking, followed for 120 h; both purified
[1] = target: FapC UK4 Asn218Ala (Pseudomonas sp. UK4) (UniProt P0DXF5)
[2] = target: FapC UK4 Gly84Pro (Pseudomonas sp. UK4) (UniProt P0DXF5)
[3] = target: FapC UK4 Asn62Ala (Pseudomonas sp. UK4) (UniProt P0DXF5)

binding [1]: no binding (tested: 15 µM, 120 h)
B1: FapC UK4 Asn218Ala (protein, UniProt P0DXF5 25-250)
chain: GPAEKWKPTPAPTGTVAAAVTDTQVSKDNKFDDTKTLNNAGANGSLSNSKGNLGANIAAGSGNQQDNAAAITSSAGDAATVFAVADIYQESKDNKFTNKGTQNNALLNNSANNSSGNVGVNVAAGQGNQQKNNLAIVTADGKNVAAASNTEQVSLDNHFLNEASSKHSYKPQYVVNNAGLLNSANNASGNIGVAVAAGAGNQQSNTLTLGSGCTVCAAGTGSKLAF

binding [2]: no binding (tested: 15 µM, 120 h)
B2: FapC UK4 Gly84Pro (protein, UniProt P0DXF5 25-250)
chain: GPAEKWKPTPAPTGTVAAAVTDTQVSKDNKFDDTKTLNNAGANGSLSNSKGNLGANIAAPSGNQQDNAAAITSSAGDAATVFAVADIYQESKDNKFTNKGTQNNALLNNSANNSSGNVGVNVAAGQGNQQKNNLAIVTADGKNVAAASNTEQVSLDNHFLNEASSKHSYKPQYVVNNAGLLNSANNASGNIGVNVAAGAGNQQSNTLTLGSGCTVCAAGTGSKLAF

binding [3]: no binding (tested: 15 µM, 120 h)
B3: FapC UK4 Asn62Ala (protein, UniProt P0DXF5 25-250)
chain: GPAEKWKPTPAPTGTVAAAVTDTQVSKDNKFDDTKTLANAGANGSLSNSKGNLGANIAAGSGNQQDNAAAITSSAGDAATVFAVADIYQESKDNKFTNKGTQNNALLNNSANNSSGNVGVNVAAGQGNQQKNNLAIVTADGKNVAAASNTEQVSLDNHFLNEASSKHSYKPQYVVNNAGLLNSANNASGNIGVNVAAGAGNQQSNTLTLGSGCTVCAAGTGSKLAF
